# From patent US11957762B2, “Immune tolerant and non-immune tolerant elastin-like recombinant peptides and methods of use” (University of Utah Research Foundation, priority 2015, dated 2024)
# B1: RED-NP: reductive-environment dependable NP, disulfide stabilized fusion iTEPB70-iTEPA28-(G8C)4-pOVA (SEQ ID NO: 61) (protein)
# chain: GGAGVPGGAGVPGGAGVPGGAGVPGGAGVPGGAGVPGGAGVPGGAGVPGGAGVPGGAGVPGGAGVPGGAGVPGGAGVPGGAGVPGGAGVPGGAGVPGGAGVPGGAGVPGGAGVPGGAGVPGGAGVPGGAGVPGGAGVPGGAGVPGGAGVPGGAGVPGGAGVPGGAGVPGGAGVPGGAGVPGGAGVPGGAGVPGGAGVPGGAGVPGGAGVPGGAGVPGGAGVPGGAGVPGGAGVPGGAGVPGGAGVPGGAGVPGGAGVPGGAGVPGGAGVPGGAGVPGGAGVPGGAGVPGGAGVPGGAGVPGGAGVPGGAGVPGGAGVPGGAGVPGGAGVPGGAGVPGGAGVPGGAGVPGGAGVPGGAGVPGGAGVPGGAGVPGGAGVPGGAGVPGGAGVPGGAGVPGGAGVPGGAGVPGGAGVPGGAGVPGGGVLPGVGGVLPGVGGVLPGVGGVLPGVGGVLPGVGGVLPGVGGVLPGVGGVLPGVGGVLPGVGGVLPGVGGVLPGVGGVLPGVGGVLPGVGGVLPGVGGVLPGVGGVLPGVGGVLPGVGGVLPGVGGVLPGVGGVLPGVGGVLPGVGGVLPGVGGVLPGVGGVLPGVGGVLPGVGGVLPGVGGVLPGVGGVLPGVGGCGCGCGCGESIINFEKLTESIINFEKLTGG
# Tested on: DC 2.4 cells
# Experiment: Intracellular degradation of RED-NP in DCs (SDS-PAGE of cell lysate)
# Format: cell-based, murine
# Conditions: DC 2.4 cells incubated with Alexa-488 labeled NP for 1 h
molecule,measurement,value
B1,time after incubation at which the ~50 kDa band disappeared completely,1 h
same,time after incubation by which the ~50 kDa band mostly faded away,≤ 30 min

# Some results come without the dose or concentration used.
